{
  "sequences": {"note": "Chains of the proteins cited; added tags and fusions are not shown.", "UniProt Q13838, whole entry, looked up": "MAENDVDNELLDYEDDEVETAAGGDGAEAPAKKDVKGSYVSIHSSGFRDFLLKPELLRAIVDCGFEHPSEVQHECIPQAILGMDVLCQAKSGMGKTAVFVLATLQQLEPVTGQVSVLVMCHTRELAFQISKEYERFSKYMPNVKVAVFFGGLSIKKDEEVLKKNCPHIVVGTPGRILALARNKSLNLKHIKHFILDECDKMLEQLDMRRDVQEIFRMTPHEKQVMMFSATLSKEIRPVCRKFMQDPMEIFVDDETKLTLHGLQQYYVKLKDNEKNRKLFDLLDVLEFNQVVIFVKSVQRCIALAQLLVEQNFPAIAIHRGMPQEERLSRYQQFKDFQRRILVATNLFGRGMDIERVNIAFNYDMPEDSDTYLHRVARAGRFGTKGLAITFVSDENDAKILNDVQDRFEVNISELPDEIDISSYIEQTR"},
  "source": "the supplement of paper PMC12067093",
  "about": "“Discovery and optimisation of a covalent ligand for TRIM25 and its application to targeted protein ubiquitination” (Chemical Science, 2025)",
  "key": {"[1]": {"target": "DDX39B_Q13838_165_KNCPHIVVGTPGR (UniProt Q13838)", "assay": "probe-labelled cysteine peptide fold change vs DMSO (competition) (log2 fold change); higher = less target engagement (more negative = stronger competition)", "conditions": "THP-1, incubation time: 4 h"}, "[2]": {"target": "DDX39B_Q13838_165_NCPHIVVGTPGR (UniProt Q13838)", "assay": "probe-labelled cysteine peptide fold change vs DMSO (competition) (log2 fold change); higher = less target engagement (more negative = stronger competition)", "conditions": "THP-1, incubation time: 4 h"}},
  "note": "The list shows a part of the results.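 Further: competitive profiling in live THP-1 cells: cysteine peptides tagged with an iodoacetamide desthiobiotin (IA-DTB) probe, intensity after compound treatment relative to DMSO-treated cells.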",
  "data": [
    {"smiles": "Cc1cc(C(=O)N2CCCN(C(=O)CCl)CC2)ccc1-c1ccccc1", "note": "[compound 10]", "values": [
      {"measurement": "probe-labelled cysteine peptide fold change", "setting": "[1]; 10 µM", "result": -0.117},
      {"measurement": "probe-labelled cysteine peptide fold change", "setting": "[1]; 50 µM", "result": -0.173},
      {"measurement": "probe-labelled cysteine peptide fold change", "setting": "[2]; 10 µM", "result": 0.0169},
      {"measurement": "probe-labelled cysteine peptide fold change", "setting": "[2]; 50 µM", "result": 0.0264}
    ]}
  ]
}
